At least one peptide structure holds a part that was inferred or is arguable (an end, a ring closure or a residue). Where a SMILES comes first, the peptide text is derived from it. The star is where a group is joined. ξ: configuration not given here. Lipoyl(6ξ) = O=C(CCCCC1CCSS1)*
Assays:
Type in all cases: biochemical
Sirt2 [1] = target: T1, Sirt2 (Homo sapiens, UniProt Q8IXJ6); assay: Steady-state kinetic study of lipoylated peptides with Sirt2 (HPLC); conditions: for kcat: Sirt2, 400 μM NAD+, HEPES pH 8.0, 37° C.; for Catalytic efficiency of Sirt2 compared with nonputative H3K9 lipoyl peptide (KAlip-1): relative to KAlip-1
T1 construct: made in house
T1 sequence (Q8IXJ6 1-389): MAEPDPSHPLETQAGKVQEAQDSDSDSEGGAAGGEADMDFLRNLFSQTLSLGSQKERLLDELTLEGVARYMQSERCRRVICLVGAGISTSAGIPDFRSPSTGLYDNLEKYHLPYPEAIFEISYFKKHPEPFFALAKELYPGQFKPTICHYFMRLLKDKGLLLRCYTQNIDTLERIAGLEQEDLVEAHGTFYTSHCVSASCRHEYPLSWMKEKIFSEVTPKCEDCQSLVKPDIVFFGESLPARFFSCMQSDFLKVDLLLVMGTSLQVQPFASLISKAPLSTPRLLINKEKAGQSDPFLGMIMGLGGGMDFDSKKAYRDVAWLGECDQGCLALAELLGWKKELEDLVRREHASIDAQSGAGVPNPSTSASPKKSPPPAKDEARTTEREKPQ
Experimental: The delipoylation activity of HDAC8 was further examined using KAlip-5 and KAlip-1. […] A more detailed assessment of the enzymatic delipoylation reaction was performed. Time-dependent experiments and steady-state kinetics studies were conducted of KAlip-1, 5, 8, and 10 with Sirt2 (Table 1).
To determine the values of kcat, and Km, purified Sirt2 with 400 μM NAD+ was incubated with different concentrations of lipoylated peptide (0-120 μM) in 20 mM HEPES buffer (pH 8.0) containing 150 mM NaCl, 1 mM MgCl2, and 2.7 mM KCl at 37° C. for 10 min (KAlip-1 and KAlip-10) or 5 min (KAlip-5 and KAlip-8). The reactions were quenched by adding 250 μL of methanol and then applied for HPLC analysis with a linear gradient of 5% to 85% B (acetonitrile) for 30 min. The generated delipoylated product was quantified based on the peak area monitored at 280 nm. The kcat, and Km, values were calculated by curve-fitting Vinitiai/[E] versus [S]. The experiments were conducted in duplicate.

HDAC8 = target: T2, HDAC8 (Homo sapiens, UniProt Q9BY41); assay: HPLC delipoylation assay of lipoylated peptides with HDAC8
T2 sequence (Q9BY41 1-377): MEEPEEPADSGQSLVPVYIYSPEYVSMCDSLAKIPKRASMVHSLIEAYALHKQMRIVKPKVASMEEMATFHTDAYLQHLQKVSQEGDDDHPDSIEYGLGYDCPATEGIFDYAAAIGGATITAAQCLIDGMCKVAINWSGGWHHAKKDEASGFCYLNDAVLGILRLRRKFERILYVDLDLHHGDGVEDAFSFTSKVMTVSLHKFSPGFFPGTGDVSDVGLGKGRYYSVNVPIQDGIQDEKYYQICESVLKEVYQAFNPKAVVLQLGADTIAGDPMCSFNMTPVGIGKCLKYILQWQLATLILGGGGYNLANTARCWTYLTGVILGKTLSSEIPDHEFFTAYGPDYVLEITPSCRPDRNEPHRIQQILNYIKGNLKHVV

Sirt2 [2] = target: T1, Sirt2; assay: HPLC delipoylation assay of lipoylated peptides with Sirt2; conditions: within just 15 min
Experimental: A total of 11 lipoylated peptides (KAlip-1 to KAlip-11) were synthesised. The peptide sequences were selected from proteins that have been reported as being lipoylated (PDH, KDH, BCKDH, and GCV) and non-lipoylated proteins (e.g., histone). The peptides were synthesized with a standard Fmoc solid phase synthesis approach and characterized by LC-MS. The delipoylation activity was then determined by an HPLC assay. Compared with non-putative peptides, putative lipoylated peptides appeared to be more efficiently hydrolyzed by Sirt2. For example, the delipoylated product of KAlip-1 (derived from histone) after 40 min was determined to be 59%, which is less than that of putative lipoylated substrates such as KAlip-5 and KAlip-6 (derived from PDH).
The lipoylated peptides KAlip-1 to -11 were incubated with sirtuin and cofactor NAD+ at 37° C. in 20 mM HEPES buffer (pH 8.0) containing 150 mM NaCl, 1 mM MgCl2, and 2.7 mM KCl. The reaction volume was set to 50 μL. At each specific reaction time point, the reaction mixtures were quenched by adding 250 μL of methanol. The reactions were vortexed and centrifuged. Supernatant was collected and then analysed by reverse phase HPLC. The new peak generated was collected for ESI-MS or MALDI-TOF-MS analysis directly.

Compound	kcat (Sirt2 [1]) [s · 1]	Delipoylated product with HDAC8 (HDAC8)	Delipoylation by Sirt2 within 15 min (Sirt2 [2])	Catalytic efficiency of Sirt2 compared with nonputative H3K9 lipoyl peptide (KAlip-1) (Sirt2 [1])
C[C@H](NC(=O)[C@@H](NC(=O)[C@H](CCC(N)=O)NC(=O)[C@@H](N)CCCCN)[C@@H](C)O)C(=O)N[C@@H](CCCNC(=N)N)C(=O)N[C@@H](CCCCNC(=O)CCCCC1CCSS1)C(=O)N[C@@H](CO)C(=O)N[C@H](C(=O)NCC(=O)NCC(=O)N[C@@H](Cc1c[nH]c2ccccc12)C(=O)N[C@@H](Cc1c[nH]c2ccccc12)C(=O)O)[C@@H](C)O (stereo partly shown) [KAlip-1, KQTARK(lip)STGGWW] (H-KQTARK(Lipoyl(6ξ))STGGWW-OH)	0.01	No delipoylated product was observed	–	–
CC[C@H](C)[C@H](NC(=O)[C@@H](NC(=O)[C@H](C)NC(=O)[C@H](CCCCNC(=O)CCCCC1CCSS1)NC(=O)[C@H](CC(=O)O)NC(=O)[C@@H](NC(=O)[C@H](CCC(=O)O)NC(=O)[C@@H](NC(=O)[C@@H](N)CCC(=O)O)[C@@H](C)CC)[C@@H](C)O)[C@@H](C)O)C(=O)NCC(=O)N[C@@H](Cc1c[nH]c2ccccc12)C(=O)N[C@@H](Cc1c[nH]c2ccccc12)C(=O)O (stereo partly shown) [KAlip-5, EIETDK(lip)ATIGWW] (H-EIETDK(Lipoyl(6ξ))ATIGWW-OH)	0.061	No delipoylated product was observed	Near absolute delipoylation	slightly higher
CC(C)[C@H](N)C(=O)N[C@@H](CCC(N)=O)C(=O)N[C@@H](CO)C(=O)N[C@@H](CC(=O)O)C(=O)N[C@@H](CCCCNC(=O)CCCCC1CCSS1)C(=O)N[C@@H](C)C(=O)N[C@@H](CO)C(=O)N[C@H](C(=O)N[C@H](C(=O)N[C@@H](Cc1c[nH]c2ccccc12)C(=O)N[C@@H](Cc1c[nH]c2ccccc12)C(=O)O)[C@@H](C)O)C(C)C (stereo partly shown) [KAlip-8, VQSD K(lip)ASVTWW] (H-VQSDK(Lipoyl(6ξ))ASVTWW-OH)	0.045	–	Near absolute delipoylation	slightly higher
CSCC[C@H](NC(=O)[C@H](C)NC(=O)[C@H](CCC(=O)O)NC(=O)[C@@H](N)C(C)C)C(=O)N[C@@H](CCCCNC(=O)CCCCC1CCSS1)C(=O)N[C@@H](CC(C)C)C(=O)N[C@@H](CCSC)C(=O)N[C@@H](CC(N)=O)C(=O)N[C@@H](CCC(=O)O)C(=O)N[C@@H](Cc1c[nH]c2ccccc12)C(=O)N[C@@H](Cc1c[nH]c2ccccc12)C(=O)O (stereo partly shown) [KAlip-11, VEAMK(lip)LMNE WW] (H-VEAMK(Lipoyl(6ξ))LMNEWW-OH)	0.023	–	–	–

From patent publication US12146183B2, “Compound and a method for identifying a protein using said compound” (CITY UNIVERSITY OF HONG KONG, priority 2020, dated 2024)
